We go through 35 molecules from PubChem BioAssay AID2685 (National Center for Advancing Translational Sciences (NCATS), 2010).

Molecules are shown by their SMILES. The list shows a part of the results. These are further read-outs of the screen, such as a control signal, another cell line or another target. No call is given for them. Compounds called inactive in the main read-out are mostly missing here. Words in brackets tell the shape of the fitted curve; partial curves, single points and poor fits give uncertain potencies.

The test in a line: qHTS Assay for Lipid Storage Modulators in Drosophila S3 Cells.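 For cell number change: cells counted by Cell Tracker Red CMTPX staining in the red channel.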 The following applies: BODIPY lipid droplet fluorescence, 18-24 h; for cell number change: measured here: cell count max response, cells fed with added oleic acid. In a few lines:
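Laser-scanning cytometry quantifies lipid droplet accumulation (500–530 nm total intensity; droplet/cell object ratio) in oleic acid-fed (400 uM added) Drosophila S3 cells treated with a concentration series. 20 uM Triacsin C defined 100% inhibition.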

The mark [1] stands for this setting: measured here: cell number channel AC50, cells fed with added oleic acid.
[2] abbreviates: measured here: lipid fluorescence (Fed channel) AC50, cells fed with added oleic acid.

With `Nc1c(Cl)cc(C2=NCCn3c2c2ccccc2[n+]3[O-])cc1Cl`, the cell number change is -21.7%. Under setting [1], the AC50 was 0.184 µM [falling, full curve, poor fit]. Besides, the concentration at half-maximal activity (AC50) under setting [2] is 29.1 µM [falling, partial curve, poor fit].
As for `O=C(CCCCC(=O)N1CCN(c2ccccc2)CC1)N1CCN(c2ccccc2)CC1`, the cell number change was -6.42%.
For `Cc1cc(C(=O)COC(=O)C2=NNC(=O)CC2)c(C)n1-c1cccc(C(F)(F)F)c1`, the cell number change was -50.5%. Also, the AC50 under setting [1] was 7.31 µM [falling, partial curve, poor fit]. The AC50 under setting [2] was 1.84 µM [falling, full curve, poor fit].
In the case of `Cc1nn(CCC(=O)NNC(=S)NCC(C)C)c(C)c1Br`, the AC50 is, setting by setting: under setting [1], 6.51 µM [rising, single point]; under setting [2], 6.51 µM [rising, single point].
Regarding `CCOCCN(C(=O)c1ccccc1Cl)c1ccccc1`, the cell number change is -34.9%. Moreover, the AC50 under setting [1] is 2.59 µM [rising, single point].
With `c1ccc(N2CCCCC2)c(Nc2nc3ccccc3n3cnnc23)c1`, the cell number change is -8.32%. The AC50 under setting [2] is 1.64 µM [rising, partial curve, poor fit].
For `CC(=O)c1cc2c(cc1NC(=O)CN1CCOCC1)OCO2`, the cell number change was -2.7%. The AC50 under setting [2] was 3.26 µM [rising, partial curve, poor fit].
As to `Cc1ccc2c(=O)cc(C(=O)NCc3ccccc3)oc2c1C`, the cell number change was 12.3%. Moreover, the AC50 under setting [2] was 2.06 µM [rising, full curve].
Turning to `COc1ccc(NC(=O)CN(Cc2ccccc2)S(C)(=O)=O)cc1`, the cell number change is -44.8%. The AC50 under setting [1] was 9.2 µM [falling, partial curve, poor fit]. Under setting [2], the AC50 was 23.1 µM [rising, single point].
As for `CCCC(C)NC(=O)CSc1nc2ccc(C)cc2[nH]1` (configuration not stated), the cell number change worked out at 22.6%. Moreover, the AC50 under setting [1] is 3.26 µM [rising, single point].
Regarding `O=C(COc1ccc2ccccc2c1Br)N1CCN(c2ccccn2)CC1`, the cell number change is -15.4%. Also, the AC50 under setting [2] is 1.84 µM [rising, partial curve].
Turning to `CC(=O)/C=C(\C)Nc1c(C)n(C)n(-c2ccccc2)c1=O`, the cell number change is -61.6%. The AC50 under setting [1] was 32.6 µM [falling, single point]. Moreover, the concentration at half-maximal activity (AC50) under setting [2] is 29.1 µM [falling, single point].
On to `NS(=O)(=O)c1ccc(CCNC(=O)C2CCCN2S(=O)(=O)c2cccc3nsnc23)cc1` (configuration not stated), for which the cell number change was -3.8%. Also, the AC50 under setting [2] was 0.00461 µM [falling, full curve, poor fit].
`O=C(O)CC(CC(=O)Nc1ccc(Oc2ccccc2)cc1)c1ccccc1` (configuration not stated): the cell number change amounted to 1.72%. In addition, the AC50 under setting [2] was 3.66 µM [rising, single point].
`CCOC(=O)c1c(N)n(CC(C)NC(=O)C2CC2)c2nc3ccccc3nc12` (configuration not stated): the cell number change stood at 4.93%. Also, the AC50 under setting [2] was 0.103 µM [falling, full curve, poor fit].
Take `CCOCc1c(C(=O)N2CCN(Cc3ccc(Br)s3)CC2)oc2ccccc12`: the cell number change was -2.19%. In addition, the AC50 under setting [2] was 0.058 µM [falling, full curve, poor fit].
As for `Cc1ccc(S(=O)(=O)N2CCN(C(=O)COC(=O)c3cnc(C)cn3)CC2)c(C)c1`, the cell number change was -31.4%. Besides, under setting [1], the AC50 was 23.1 µM [falling, single point]. Under setting [2], the AC50 was 23.1 µM [falling, partial curve].
As to `O=C(COc1ccccc1)N1CCN(C(=O)c2ccccc2F)CC1`, the cell number change stood at 23.8%. In addition, under setting [1], the AC50 is 0.13 µM [rising, full curve, poor fit].
On to `CCS(=O)(=O)c1nc(NC(C)=O)n[nH]1`, for which the cell number change is 4.4%.
On to `Cc1ccc(NC(=O)C(c2ccccc2)N(C)C)cc1Cl` (configuration not stated), for which the AC50 under setting [1] was 0.461 µM [falling, single point].
For the molecule `CN(C)C(CNC(=O)C1CCN(C(=O)/C=C/c2ccccc2)CC1)c1ccccc1` (configuration not stated), the cell number change is 11.8%. Moreover, the AC50 under setting [1] was 0.206 µM [rising, full curve, poor fit].
Consider `COc1ccc(C(=O)NC(C)c2ccccc2)cc1Br` (configuration not stated), for which the cell number change came out at 39.2%. The AC50 under setting [1] is 20.6 µM [rising, single point]. Moreover, under setting [2], the AC50 is 6.51 µM [falling, single point].
On to `COc1ccc(Nc2ccc(S(=O)(=O)N3CCCCC3)cc2[N+](=O)[O-])cc1OC`, for which the cell number change was -66.6%. Further, the AC50 under setting [1] was 25.9 µM [falling, single point]. Also, the AC50 under setting [2] was 16.4 µM [falling, partial curve].
On to `COC(=O)c1ccccc1NC(=O)c1cccc(NC(=O)C(C)C)c1`, for which the cell number change came out at 33.4%. Also, the AC50 under setting [1] was 3.66 µM [rising, full curve, poor fit]. The AC50 under setting [2] was 3.26 µM [rising, partial curve, poor fit].
Turning to `Cc1ccc(-c2csc(NC(=O)c3ccc4c(=O)n5c(nc4c3)CCCCC5)n2)cc1`, the cell number change is -20.8%. Also, the AC50 under setting [2] is 0.103 µM [rising, full curve, poor fit].
As for `CCC(CC)c1nnc(NC(=O)CN2C(=O)C3C4C=CC(C4)C3C2=O)s1` (configuration not stated), the cell number change stood at 12.8%. The AC50 under setting [2] is 0.651 µM [rising, single point].
`CCOc1ncccc1C(=O)N1CCN(C(=O)c2ccccc2)CC1`: the cell number change was -39.9%.
`CCOC(=O)C1=C(C)Nc2sc(C(=O)c3ccc(C)cc3)c(N)c2C1c1ccc(C(=O)OC)cc1` (configuration not stated): the cell number change was -8.56%. In addition, the AC50 under setting [2] was 29.1 µM [rising, single point].
In the case of `Cc1ccc(O)c(-c2cc(C(=O)Nc3ccc(S(=O)(=O)Nc4nccc(C)n4)cc3)[nH]n2)c1`, the cell number change was 1.26%. The AC50 under setting [2] was 0.13 µM [falling, full curve, poor fit].
Take `O=C(/C=C/c1cccc([N+](=O)[O-])c1)N1CCN(c2ccc(F)cc2)CC1`: under setting [2], the AC50 was 6.51 µM [falling, partial curve].
Take `O=C(CN(C1CCCCC1)S(=O)(=O)c1ccc(Cl)cc1)NCCCO`: the cell number change was found to be 14.9%. In addition, the AC50 under setting [2] was 0.13 µM [falling, full curve, poor fit].
In the case of `O=C(NCc1ccccc1F)C1CC(=O)N(c2ccc3c(c2)OCCO3)C1` (configuration not stated), the cell number change came to 20.8%. In addition, under setting [2], the AC50 was 32.6 µM [rising, single point].
`CCN1CCN(c2ccc(NC(=O)c3cc(S(=O)(=O)N4CCCC4)ccc3Cl)cc2)CC1`: the cell number change was -8.52%. Moreover, the AC50 under setting [2] was 1.64 µM [rising, partial curve, poor fit].
In the case of `Cc1ccc(S(=O)(=O)NCCc2nnc3ccc(SCC(=O)Nc4nc5ccccc5s4)nn23)cc1`, the cell number change was -7.27%. Besides, under setting [2], the half-maximal activity concentration (AC50) was 2.91 µM [rising, partial curve, poor fit].
As for `COc1ccc(-n2nnnc2SCC(=O)Nc2nnc(C)s2)cc1`, the AC50 under setting [2] is 3.66 µM [rising, single point].
